Reference: PMC7862700
The other results are listed elsewhere or left out. The source does not settle which construct or isoform was used.

Molecular target: T1, ELF2 (UniProt Q15723)
T1 sequence: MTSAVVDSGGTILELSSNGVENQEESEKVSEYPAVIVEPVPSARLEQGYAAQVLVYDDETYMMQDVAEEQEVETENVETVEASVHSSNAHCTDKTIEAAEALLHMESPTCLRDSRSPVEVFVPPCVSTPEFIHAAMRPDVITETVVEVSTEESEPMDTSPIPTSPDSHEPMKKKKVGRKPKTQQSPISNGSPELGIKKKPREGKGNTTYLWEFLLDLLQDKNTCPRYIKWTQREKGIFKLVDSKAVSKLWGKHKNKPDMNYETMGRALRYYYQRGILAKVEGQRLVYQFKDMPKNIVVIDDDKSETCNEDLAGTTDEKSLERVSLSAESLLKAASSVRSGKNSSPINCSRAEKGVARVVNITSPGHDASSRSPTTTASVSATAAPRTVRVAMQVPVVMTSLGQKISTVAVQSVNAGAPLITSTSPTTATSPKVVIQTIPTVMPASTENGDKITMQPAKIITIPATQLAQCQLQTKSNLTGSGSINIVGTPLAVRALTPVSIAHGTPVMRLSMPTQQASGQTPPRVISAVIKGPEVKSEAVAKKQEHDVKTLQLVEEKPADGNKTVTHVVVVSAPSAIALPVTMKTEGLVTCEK
Assay: DAPPL (digital affinity profiling via proximity ligation, sequencing)
Conditions: 10 mM Tris-HCl pH 7.5, 50 mM NaCl, 1 mM DTT, 4% glycerol, room temperature, 30 min; GST-TFs on glutathione beads, 16-mer random dsDNA library, 0.1% …; high values mean tight binding; double strand, one strand shown; scale: fold enrichment (6-mer frequency, TF over GST control)

| Sequence | binding signal |
| --- | --- |
| AGAGCT | 0.932 |
| TGAACA | 1.17 |
| GGCATT | 1.06 |
| GGGATT | 0.875 |
| ATCGTT | 0.968 |
| GTTATT | 1.17 |
| AATCCG | 1.73 |
| CTAACA | 1.16 |
| ATTCGC | 1.16 |
| ATGAAG | 1.02 |
| GAATAT | 1.12 |
| ATTAGA | 0.869 |
| TTAATC | 1.2 |
| AAGCAA | 1.09 |
| TTTAAT | 1.29 |
| TAACTA | 1.27 |
| CGAACC | 1.17 |

2 entries from above, comma-delimited:
Sequence,binding signal
GTTATT,1.17
AATCCG,1.73

The results go on.

| Sequence | binding signal |
| --- | --- |
| GATCAA | 0.933 |
| CCGGCT | 1.94 |
| CTGGTA | 1.32 |
| TGTCTT | 1.33 |
| AACTAT | 1.37 |
| AGCATT | 1.06 |
| TATGTG | 1.06 |
| TGATTA | 1.04 |
| TTCTAG | 1.18 |
| AGAATA | 1.06 |
| TTCGAC | 1.35 |
| GATTCG | 0.93 |
| CTGATT | 1.21 |
| TCTGAA | 1.13 |
| CCCCTA | 1.1 |
| AGAAGG | 0.707 |
| CTTGTA | 1.32 |
